From PubChem BioAssay AID624134 (Broad Institute, 2012) come the findings set out here.

Out of some 1,600 compounds screened, about 1,100 (69%) were called active. The set was probably picked from earlier hits. This is a selection; strong and weak results do not stand in their true shares. Entries with a potency or affinity are not part of this list. Inconclusive results are not listed.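 Rule for the calls: active = signal drop with fitted half-maximal concentration no higher than twice the top valid tested concentration; inconclusive = flat curve with 30 to 70% signal loss, or poor fit; inactive = the rest, including signal rises and flat curves within 30%.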

The nature of this experiment: loss of viability in HepG2 cells – cell-based, CellTiter-Glo, cherry-picked, cytotoxicity control for Shn3 inhibitor project, dose response (AID 624134).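 Note: 0% = median of neutral control wells and -100% = median of positive control wells.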 The settings on record: CellTiter-Glo ATP luminescence, 48 h; at 35 µM (top of the series). On the technique in general: ATP-based viability assays read luminescence as a measure of living cells.
In the case of `O=C(NCCCn1ccnc1)C(=O)NCC1OCCCN1S(=O)(=O)c1ccccc1` (stereo not drawn), the activity change, negative = cytotoxicity was inactive: 3.35%. `Cc1cc(CN2CCOCC2)c(O)c(C2(C)CCCCC2)c1`: the activity change, negative = cytotoxicity was inactive: 12.9%. Under `CCCc1nc([N+](=O)[O-])c(S(=O)(=O)c2ccccc2)n1CC(C)C` stands inactive: -25.5%; under `Cc1c(CCOC(=O)CC23CC4CC(CC(C4)C2)C3)sc[n+]1CC(=O)c1ccc(Br)cc1`, inactive: -13.8%. Under `Cc1cc(=O)oc2c3c(cc(OCC(=O)Nc4ccc(CCO)cc4)c12)OC(C)(C)CC3` stands inactive: -4.82%; under `COCCn1c(SCC(=O)/C=C2\N(C)c3ccccc3C2(C)C)nnc1-c1ccncc1`, inactive: -22%. On to `CC1=NOC(=O)/C1=C\c1ccc(-c2cc(Cl)ccc2Cl)o1`, for which the activity change, negative = cytotoxicity is inactive: -3.66%. Under `COc1ccc(C(=O)OCC(=O)Nc2ccc3[nH]c(=O)[nH]c3c2)cc1` stands inactive: -7.95%; under `CCCCCCCCNC(C)C(O)c1ccc(SC(C)C)cc1` (stereo not drawn), -96.2%. Under `O=C1CC(c2ccccc2)CC(O)=C1C=Nc1cccc(Cl)c1` (stereo not drawn) stands inactive: -7.86%. Regarding `COc1ccccc1-n1cc([C@@H]2C[C@H]3CN(c4ccccc4)C(=O)[C@]34CCCN24)cn1`, the activity change, negative = cytotoxicity was inactive: -18.9%. As for `CCCCCCC#Cc1ccc2c(c1)COc1c3ccccc3nn1-2`, the activity change, negative = cytotoxicity was inactive: -0.219%. With `Cc1ccc(-c2nc3ncccc3o2)cc1NC(=O)c1sc2ccccc2c1Cl` the figure was inactive: -3.4%.
